The list shows a part of the results.
How the values were obtained:
Assay in all cases: log2 fold change, soluble protein after heating vs DMSO (PISA); higher = thermal stabilisation; K562 lysate, 10 uM; active = over 0.2 and 3.5 SD of the protein, either way, in both replicates (recomputed)
lapatinib = compound: CS(=O)(=O)CCNCc1ccc(-c2ccc3ncnc(Nc4ccc(OCc5cccc(F)c5)c(Cl)c4)c3c2)o1 [lapatinib]
Procedure, shortened: (§1)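 Quantification was by TMTpro 16plex LC-MS/MS with equalised channel sums, applied to the supernatant after 21,000xg for 90 min. Samples were crude K562 extract at 1 mg/mL protein in PBS pH 7.4 with 1 mM MgCl2, treated with 10 μM compound for 30 min, heated for 3 min across 48°C-58°C, pooled and brought to 0.5% NP-40 at 4°C. Values are log-two fold changes in thermal stability relative to solvent controls, from duplicates.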

The chains behind the UniProt entries cited, without tags or fusion partners. Where a name states a change or a piece, a line headed by the entry shows the natural chain unless it says otherwise.
UniProt O43824: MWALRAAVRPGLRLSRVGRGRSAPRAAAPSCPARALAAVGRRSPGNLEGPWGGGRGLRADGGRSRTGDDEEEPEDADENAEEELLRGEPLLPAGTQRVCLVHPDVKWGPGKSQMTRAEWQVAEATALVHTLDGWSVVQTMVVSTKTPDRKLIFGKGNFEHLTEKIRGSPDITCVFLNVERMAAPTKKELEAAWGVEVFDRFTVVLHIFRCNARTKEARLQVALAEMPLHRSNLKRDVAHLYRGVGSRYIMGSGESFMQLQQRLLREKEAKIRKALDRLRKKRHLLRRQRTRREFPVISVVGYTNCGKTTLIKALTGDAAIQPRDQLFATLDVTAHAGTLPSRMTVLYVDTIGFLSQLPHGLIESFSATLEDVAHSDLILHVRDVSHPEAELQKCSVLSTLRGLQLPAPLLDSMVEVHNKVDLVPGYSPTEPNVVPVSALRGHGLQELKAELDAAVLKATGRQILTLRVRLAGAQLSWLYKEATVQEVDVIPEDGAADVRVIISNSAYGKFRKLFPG
UniProt Q6Y1H2: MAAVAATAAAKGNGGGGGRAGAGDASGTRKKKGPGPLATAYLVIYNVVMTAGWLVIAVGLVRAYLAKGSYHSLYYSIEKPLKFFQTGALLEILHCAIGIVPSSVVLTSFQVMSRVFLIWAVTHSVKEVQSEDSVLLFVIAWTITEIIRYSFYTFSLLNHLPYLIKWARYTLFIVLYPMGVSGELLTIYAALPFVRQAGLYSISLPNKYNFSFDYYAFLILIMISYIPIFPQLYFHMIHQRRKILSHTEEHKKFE
UniProt Q4ZG55: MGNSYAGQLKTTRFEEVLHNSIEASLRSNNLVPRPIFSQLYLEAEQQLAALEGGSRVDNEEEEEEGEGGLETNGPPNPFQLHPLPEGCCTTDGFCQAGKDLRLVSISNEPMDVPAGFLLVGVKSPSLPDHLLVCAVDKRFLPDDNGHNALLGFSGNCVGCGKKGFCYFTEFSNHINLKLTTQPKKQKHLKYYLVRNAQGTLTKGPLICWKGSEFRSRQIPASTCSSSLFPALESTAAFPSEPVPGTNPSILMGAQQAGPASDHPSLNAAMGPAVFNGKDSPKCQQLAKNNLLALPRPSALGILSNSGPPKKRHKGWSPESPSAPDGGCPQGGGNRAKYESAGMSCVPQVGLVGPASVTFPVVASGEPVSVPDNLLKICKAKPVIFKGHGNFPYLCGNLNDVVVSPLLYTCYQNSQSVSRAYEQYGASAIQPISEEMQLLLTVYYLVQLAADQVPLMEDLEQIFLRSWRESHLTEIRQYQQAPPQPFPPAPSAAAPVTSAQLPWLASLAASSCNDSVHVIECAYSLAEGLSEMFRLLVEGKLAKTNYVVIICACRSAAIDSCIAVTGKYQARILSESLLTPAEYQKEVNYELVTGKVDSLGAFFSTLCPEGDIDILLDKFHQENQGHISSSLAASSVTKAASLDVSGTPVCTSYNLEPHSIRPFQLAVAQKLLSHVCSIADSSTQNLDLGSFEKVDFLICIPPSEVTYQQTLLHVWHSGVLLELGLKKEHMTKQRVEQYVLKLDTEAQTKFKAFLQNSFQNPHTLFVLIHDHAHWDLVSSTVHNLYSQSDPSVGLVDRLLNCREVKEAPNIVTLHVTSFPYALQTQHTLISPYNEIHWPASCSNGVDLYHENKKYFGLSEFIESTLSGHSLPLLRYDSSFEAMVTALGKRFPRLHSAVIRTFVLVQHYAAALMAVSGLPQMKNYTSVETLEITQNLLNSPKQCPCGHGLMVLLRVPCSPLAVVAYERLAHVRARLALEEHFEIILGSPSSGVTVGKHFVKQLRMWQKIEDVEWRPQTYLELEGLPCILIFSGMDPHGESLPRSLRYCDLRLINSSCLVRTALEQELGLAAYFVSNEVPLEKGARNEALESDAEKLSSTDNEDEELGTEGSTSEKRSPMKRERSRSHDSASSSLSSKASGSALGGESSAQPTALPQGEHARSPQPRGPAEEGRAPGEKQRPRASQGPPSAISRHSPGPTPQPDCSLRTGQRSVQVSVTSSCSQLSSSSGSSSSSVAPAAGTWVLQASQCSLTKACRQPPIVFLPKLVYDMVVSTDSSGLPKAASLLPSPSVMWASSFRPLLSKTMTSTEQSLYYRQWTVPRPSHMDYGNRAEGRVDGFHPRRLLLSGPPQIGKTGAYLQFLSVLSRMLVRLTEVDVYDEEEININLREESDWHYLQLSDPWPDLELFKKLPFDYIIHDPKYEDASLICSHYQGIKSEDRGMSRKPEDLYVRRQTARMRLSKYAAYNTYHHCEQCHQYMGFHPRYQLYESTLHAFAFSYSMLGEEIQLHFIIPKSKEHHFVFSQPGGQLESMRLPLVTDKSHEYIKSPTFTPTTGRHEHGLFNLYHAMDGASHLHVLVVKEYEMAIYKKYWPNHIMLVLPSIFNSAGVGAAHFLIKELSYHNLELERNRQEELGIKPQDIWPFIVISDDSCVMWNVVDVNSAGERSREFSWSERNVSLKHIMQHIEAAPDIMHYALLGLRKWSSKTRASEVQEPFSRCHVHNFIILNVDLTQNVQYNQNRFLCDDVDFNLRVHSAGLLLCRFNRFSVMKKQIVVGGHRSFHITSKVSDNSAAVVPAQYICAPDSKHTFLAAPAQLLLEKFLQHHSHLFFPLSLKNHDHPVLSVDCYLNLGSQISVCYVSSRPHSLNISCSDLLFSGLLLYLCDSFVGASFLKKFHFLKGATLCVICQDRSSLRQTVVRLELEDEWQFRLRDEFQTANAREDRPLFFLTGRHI
UniProt P41594, whole entry, looked up: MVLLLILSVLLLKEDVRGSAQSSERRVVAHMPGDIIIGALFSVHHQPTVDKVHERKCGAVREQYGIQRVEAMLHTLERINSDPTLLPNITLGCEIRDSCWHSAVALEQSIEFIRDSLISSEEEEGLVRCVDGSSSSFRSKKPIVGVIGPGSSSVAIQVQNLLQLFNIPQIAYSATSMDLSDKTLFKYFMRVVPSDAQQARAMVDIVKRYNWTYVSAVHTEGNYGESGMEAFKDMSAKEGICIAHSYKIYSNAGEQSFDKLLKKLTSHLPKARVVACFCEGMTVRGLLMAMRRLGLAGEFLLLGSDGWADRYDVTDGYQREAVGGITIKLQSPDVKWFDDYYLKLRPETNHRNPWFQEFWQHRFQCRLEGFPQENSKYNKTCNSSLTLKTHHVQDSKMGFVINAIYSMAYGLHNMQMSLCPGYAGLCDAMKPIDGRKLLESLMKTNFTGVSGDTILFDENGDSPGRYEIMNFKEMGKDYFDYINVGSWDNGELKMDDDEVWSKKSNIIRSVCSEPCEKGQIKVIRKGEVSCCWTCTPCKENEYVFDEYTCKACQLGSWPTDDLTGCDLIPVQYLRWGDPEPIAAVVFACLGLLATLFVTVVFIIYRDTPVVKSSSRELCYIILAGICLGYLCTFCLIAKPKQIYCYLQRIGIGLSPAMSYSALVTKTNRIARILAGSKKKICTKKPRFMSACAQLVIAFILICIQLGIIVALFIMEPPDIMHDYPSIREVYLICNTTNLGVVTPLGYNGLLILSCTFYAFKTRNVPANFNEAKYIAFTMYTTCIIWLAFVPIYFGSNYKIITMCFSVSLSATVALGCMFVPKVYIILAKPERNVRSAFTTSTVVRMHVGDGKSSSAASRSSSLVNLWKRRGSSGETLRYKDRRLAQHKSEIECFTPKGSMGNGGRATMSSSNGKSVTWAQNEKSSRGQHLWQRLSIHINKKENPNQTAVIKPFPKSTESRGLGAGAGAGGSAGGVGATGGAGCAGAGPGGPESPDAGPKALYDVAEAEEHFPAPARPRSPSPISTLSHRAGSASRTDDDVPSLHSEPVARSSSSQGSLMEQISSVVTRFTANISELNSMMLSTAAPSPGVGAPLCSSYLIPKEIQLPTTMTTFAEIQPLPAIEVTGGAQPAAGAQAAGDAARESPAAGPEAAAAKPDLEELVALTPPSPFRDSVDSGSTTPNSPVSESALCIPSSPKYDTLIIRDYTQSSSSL
UniProt Q8TD30: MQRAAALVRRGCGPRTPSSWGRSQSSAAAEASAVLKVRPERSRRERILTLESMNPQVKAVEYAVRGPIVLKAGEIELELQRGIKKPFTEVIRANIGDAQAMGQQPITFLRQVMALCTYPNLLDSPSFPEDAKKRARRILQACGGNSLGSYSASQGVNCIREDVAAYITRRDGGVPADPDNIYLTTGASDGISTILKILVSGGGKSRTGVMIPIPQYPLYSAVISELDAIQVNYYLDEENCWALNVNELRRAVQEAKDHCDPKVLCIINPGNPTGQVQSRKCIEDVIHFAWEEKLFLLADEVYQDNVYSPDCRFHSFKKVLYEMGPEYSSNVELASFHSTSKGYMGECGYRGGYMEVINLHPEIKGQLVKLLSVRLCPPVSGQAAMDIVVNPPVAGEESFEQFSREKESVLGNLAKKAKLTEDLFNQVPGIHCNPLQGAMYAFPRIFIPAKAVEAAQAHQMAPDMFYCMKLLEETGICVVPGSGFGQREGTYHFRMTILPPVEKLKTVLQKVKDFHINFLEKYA
UniProt P28799: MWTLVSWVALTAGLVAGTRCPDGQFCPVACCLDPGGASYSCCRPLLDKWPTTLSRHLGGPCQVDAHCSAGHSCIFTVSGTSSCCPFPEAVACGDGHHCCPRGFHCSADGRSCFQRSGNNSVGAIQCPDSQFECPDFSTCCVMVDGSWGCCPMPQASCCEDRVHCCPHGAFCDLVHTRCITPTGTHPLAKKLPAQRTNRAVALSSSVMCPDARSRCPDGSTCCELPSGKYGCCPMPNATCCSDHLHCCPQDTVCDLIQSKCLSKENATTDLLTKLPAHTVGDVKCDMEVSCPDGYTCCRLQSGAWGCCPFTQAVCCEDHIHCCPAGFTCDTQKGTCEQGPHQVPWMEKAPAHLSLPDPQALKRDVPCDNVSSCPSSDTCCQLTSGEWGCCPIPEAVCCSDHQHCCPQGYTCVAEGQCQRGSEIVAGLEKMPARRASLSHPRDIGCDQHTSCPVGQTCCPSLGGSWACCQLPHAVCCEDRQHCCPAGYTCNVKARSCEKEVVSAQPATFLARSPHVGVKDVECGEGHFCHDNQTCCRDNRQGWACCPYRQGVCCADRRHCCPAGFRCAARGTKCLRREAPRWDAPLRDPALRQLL
UniProt O15488: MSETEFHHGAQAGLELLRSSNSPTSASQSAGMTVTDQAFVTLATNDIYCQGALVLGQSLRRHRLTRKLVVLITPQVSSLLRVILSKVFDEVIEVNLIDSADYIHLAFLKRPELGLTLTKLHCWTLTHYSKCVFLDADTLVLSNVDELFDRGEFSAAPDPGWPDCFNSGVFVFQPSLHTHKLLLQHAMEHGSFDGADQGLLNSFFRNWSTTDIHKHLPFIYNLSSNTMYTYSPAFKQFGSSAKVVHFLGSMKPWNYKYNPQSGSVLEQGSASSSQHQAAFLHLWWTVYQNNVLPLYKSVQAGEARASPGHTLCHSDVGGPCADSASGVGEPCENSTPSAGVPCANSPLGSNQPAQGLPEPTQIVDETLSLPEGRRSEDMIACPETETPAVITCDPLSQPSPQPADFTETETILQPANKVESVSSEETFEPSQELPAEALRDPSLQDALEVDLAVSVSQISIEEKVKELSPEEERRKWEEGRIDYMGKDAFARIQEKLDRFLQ
UniProt Q9UBP9: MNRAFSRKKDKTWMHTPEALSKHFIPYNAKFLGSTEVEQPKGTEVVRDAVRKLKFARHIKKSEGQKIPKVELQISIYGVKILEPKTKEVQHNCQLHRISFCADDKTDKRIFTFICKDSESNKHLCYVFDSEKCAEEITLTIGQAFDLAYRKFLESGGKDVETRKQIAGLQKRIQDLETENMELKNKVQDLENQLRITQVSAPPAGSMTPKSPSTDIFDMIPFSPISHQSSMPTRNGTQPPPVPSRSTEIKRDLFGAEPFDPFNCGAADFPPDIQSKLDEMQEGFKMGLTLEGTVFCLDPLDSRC
UniProt P28161: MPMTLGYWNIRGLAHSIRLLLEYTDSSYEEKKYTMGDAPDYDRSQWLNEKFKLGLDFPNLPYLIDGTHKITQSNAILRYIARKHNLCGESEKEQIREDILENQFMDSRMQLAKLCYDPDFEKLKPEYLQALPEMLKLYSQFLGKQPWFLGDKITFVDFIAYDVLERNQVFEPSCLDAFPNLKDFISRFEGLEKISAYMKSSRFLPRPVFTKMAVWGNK
UniProt Q5JVS0: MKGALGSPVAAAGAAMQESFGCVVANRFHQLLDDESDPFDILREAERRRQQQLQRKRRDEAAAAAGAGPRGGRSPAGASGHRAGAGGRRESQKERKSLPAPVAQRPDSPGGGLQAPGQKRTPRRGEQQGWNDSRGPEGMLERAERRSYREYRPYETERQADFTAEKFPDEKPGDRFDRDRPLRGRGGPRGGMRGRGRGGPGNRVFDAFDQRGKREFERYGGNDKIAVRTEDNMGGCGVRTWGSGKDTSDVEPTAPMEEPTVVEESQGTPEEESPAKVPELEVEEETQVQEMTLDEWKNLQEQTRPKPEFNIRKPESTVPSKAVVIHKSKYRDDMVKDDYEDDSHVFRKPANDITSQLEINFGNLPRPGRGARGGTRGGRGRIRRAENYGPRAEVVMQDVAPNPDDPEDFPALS

crizotinib = compound: C[C@@H](Oc1cc(-c2cnn(C3CCNCC3)c2)cnc1N)c1c(Cl)ccc(F)c1Cl [crizotinib]
Procedure, shortened: as §1

duvelisib = compound: C[C@H](Nc1ncnc2nc[nH]c12)c1cc2cccc(Cl)c2c(=O)n1-c1ccccc1 [duvelisib]
Procedure, shortened: as §1

doramapimod = compound: Cc1ccc(-n2nc(C(C)(C)C)cc2NC(=O)Nc2ccc(OCCN3CCOCC3)c3ccccc23)cc1 [doramapimod]
Procedure, shortened: as §1

dasatinib = compound: Cc1nc(Nc2ncc(C(=O)Nc3c(C)cccc3Cl)s2)cc(N2CCN(CCO)CC2)n1 [dasatinib]
Procedure, shortened: as §1

[1] = compound: Cn1cc(-c2ccc3c(c2)CCN3C(=O)Cc2cccc(C(F)(F)F)c2)c2c(N)ncnc21
Procedure, shortened: as §1

quisinostat = compound: Cn1cc(CNCC2CCN(c3ncc(C(=O)NO)cn3)CC2)c2ccccc21 [quisinostat]
Procedure, shortened: as §1

[2] = compound: NC(=O)Nc1cc(-c2cccc(F)c2)sc1C(=O)N[C@H]1CCCNC1
Procedure, shortened: as §1

[3] = compound: NC(=O)c1cnc(N[C@@H]2CCCC[C@@H]2N)nc1Nc1cccc(-n2nccn2)c1
Procedure, shortened: as §1

[4] = compound: NC1(c2ccc(-c3nc4ccn5c(=O)[nH]nc5c4cc3-c3ccccc3)cc2)CCC1
Procedure, shortened: as §1

pictilisib = compound: CS(=O)(=O)N1CCN(Cc2cc3nc(-c4cccc5[nH]ncc45)nc(N4CCOCC4)c3s2)CC1 [pictilisib]
Procedure, shortened: as §1

tozasertib = compound: Cc1cc(Nc2cc(N3CCN(C)CC3)nc(Sc3ccc(NC(=O)C4CC4)cc3)n2)n[nH]1 [tozasertib]
Procedure, shortened: as §1

bafetinib = compound: Cc1ccc(NC(=O)c2ccc(CN3CC[C@H](N(C)C)C3)c(C(F)(F)F)c2)cc1Nc1nccc(-c2cncnc2)n1 [bafetinib]
Procedure, shortened: as §1

[5] = compound: C[C@H](C1=CC=C(C=C1)C(=O)NC2=C3C=CNC3=NC=C2)N
Procedure, shortened: as §1

gandotinib = compound: Cc1cc(Nc2cc(CN3CCOCC3)c3nc(C)c(Cc4ccc(Cl)cc4F)n3n2)n[nH]1 [gandotinib]
Procedure, shortened: as §1

[6] = compound: Cc1cccc(CC(=O)N2CCc3c2ccc(-c2cn(C)c4ncnc(N)c24)c3F)n1
Procedure, shortened: as §1

nilotinib = compound: Cc1cn(-c2cc(NC(=O)c3ccc(C)c(Nc4nccc(-c5cccnc5)n4)c3)cc(C(F)(F)F)c2)cn1 [nilotinib]
Procedure, shortened: as §1

[7] = compound: Cc1nc(Nc2n[nH]c3c2CN(C(=O)N[C@H](CN(C)C)c2ccccc2)C3(C)C)c2sccc2n1
Procedure, shortened: as §1

[8] = compound: Cc1ncc(-c2ccnc(Nc3ccc(S(C)(=O)=O)cc3)n2)n1C(C)C
Procedure, shortened: as §1

tipifarnib = compound: Cn1cncc1[C@@](N)(c1ccc(Cl)cc1)c1ccc2c(c1)c(-c1cccc(Cl)c1)cc(=O)n2C [tipifarnib]
Procedure, shortened: as §1

Measured: log2 fold change

GUCD1 isoform 3 (UniProt Q96NT3)
inactive: lapatinib -0.014 | crizotinib -0.13 | duvelisib 0.079 | doramapimod 0.036 | dasatinib -0.108 | [1] 0.133 | quisinostat -0.028 | [2] -0.132 | [3] -0.136 | [4] -0.026

H3-2 (UniProt Q5TEC6)
inactive: pictilisib 0.047 | crizotinib 0.028 | duvelisib -0.274 | tozasertib 0.067 | doramapimod 0.075 | bafetinib 0.147 | dasatinib 0.014 | [1] -0.383 | quisinostat -0.113 | [2] -0.048

HAGH isoform 2 (UniProt Q16775)
inactive: lapatinib -0.078 | crizotinib 0.004 | duvelisib 0.187 | doramapimod -0.138 | dasatinib 0.228 | [1] -0.024 | quisinostat 0.179 | [2] -0.066 | [3] 0.027 | [4] 0.006

HDAC3 (UniProt E7ESJ6)
inactive: lapatinib -0.073 | [3] 0.058

GSPT1 isoform 2 (UniProt P15170)
inactive: lapatinib 0.055 | [3] -0.027

GTPBP6 (UniProt O43824)
inactive: [5] 0.149 | duvelisib -0.003 | gandotinib 0.156 | tozasertib 0.023 | [6] -0.023 | dasatinib -0.025 | [1] 0.136

HACD2 (UniProt Q6Y1H2)
inactive: lapatinib -0.151 | pictilisib 0.126 | bafetinib -0.249 | [3] -0.045 | [4] 0.067

HCFC2 (UniProt Q9Y5Z7)
inactive: pictilisib -0.015 | crizotinib 0.07 | doramapimod 0 | bafetinib -0.083 | quisinostat -0.004 | [2] -0.064

HBD (UniProt E9PEW8)
inactive: lapatinib -0.001 | crizotinib -0.012 | [5] -0.028 | gandotinib -0.093 | doramapimod 0.054 | [6] 0.017 | quisinostat -0.046 | [2] 0.053 | [3] -0.071

GREB1 (UniProt Q4ZG55)
inactive: pictilisib 0.014 | crizotinib -0.247 | [5] -0.4 | gandotinib 0.267 | tozasertib -0.154 | doramapimod -0.029 | bafetinib -0.129 | [6] 0.334 | quisinostat -0.509 | [2] 0.214 | [4] -0.171

GRM5 (UniProt P41594)
inactive: lapatinib -0.107 | pictilisib -0.396 | duvelisib 0.013 | tozasertib 0.006 | bafetinib -0.407 | nilotinib -0.078 | [7] 0.023 | dasatinib -0.109 | [8] 0.145 | [1] 0.043 | tipifarnib 0.116 | [3] -0.11 | [4] -0.065

HAGHL isoform 2 (UniProt Q6PII5)
inactive: lapatinib -0.023 | pictilisib -0.038 | crizotinib 0.062 | duvelisib 0.012 | tozasertib -0.062 | doramapimod -0.011 | bafetinib 0.002 | nilotinib -0.009 | [7] 0.05 | dasatinib 0.018 | [8] 0.014 | [1] 0.042 | quisinostat 0.049 | tipifarnib 0.035 | [2] -0.011 | [3] 0.013 | [4] -0.066

GRIPAP1 isoform 2 (UniProt Q4V328)
inactive: crizotinib 0.152 | doramapimod -0.308 | quisinostat 0.094 | [2] 0.121

H1-0 (UniProt P07305)
inactive: crizotinib 0.053 | duvelisib -0.215 | doramapimod -0.009 | dasatinib 0.064 | [1] 0.006 | quisinostat -0.126 | [2] 0.019

GPT2 (UniProt Q8TD30)
inactive: crizotinib 0.014 | duvelisib -0.007 | tozasertib 0.028 | doramapimod 0.099 | dasatinib 0.036 | [1] 0.034 | quisinostat 0.039 | [2] -0.031 | [4] -0.091

GRN (UniProt P28799)
inactive: lapatinib -0.217 | crizotinib 0.03 | [5] -0.059 | duvelisib -0.053 | gandotinib 0.023 | tozasertib -0.044 | doramapimod 0.034 | [6] -0.021 | dasatinib 0.078 | [1] -0.003 | quisinostat -0.059 | [2] 0.002 | [3] 0.01 | [4] -0.027

H3-3A (UniProt P84243)
inactive: lapatinib 0.028 | pictilisib -0.018 | crizotinib 0.046 | [5] 0 | gandotinib 0.016 | tozasertib -0.083 | doramapimod -0.062 | bafetinib -0.049 | [6] 0.03 | quisinostat 0.014 | [2] 0.032 | [3] 0 | [4] -0.093

GYG2 (UniProt O15488)
inactive: lapatinib -0.028 | pictilisib -0.002 | duvelisib 0.026 | tozasertib 0.118 | bafetinib -0.132 | dasatinib -0.023 | [1] 0.018 | [3] -0.074 | [4] 0.013

GULP1 (UniProt Q9UBP9)
inactive: pictilisib 0.15 | crizotinib -0.224 | [5] 0.032 | duvelisib -0.03 | gandotinib 0.046 | tozasertib 0.042 | doramapimod 0.162 | bafetinib 0.054 | [6] 0.061 | nilotinib -0.033 | [7] -0.031 | dasatinib -0.124 | [8] 0.032 | [1] 0.004 | quisinostat -0.19 | tipifarnib -0.088 | [2] 0.135 | [4] 0.107

GYPA, A0A2R8Y7F9
inactive: pictilisib -0.033 | [5] -0.562 | gandotinib 0.202 | bafetinib -0.029 | [6] 0.17

2 consecutive records out of the list so far:
GYG2 (UniProt O15488)
inactive: lapatinib -0.028 | pictilisib -0.002 | duvelisib 0.026 | tozasertib 0.118 | bafetinib -0.132 | dasatinib -0.023 | [1] 0.018 | [3] -0.074 | [4] 0.013

GULP1 (UniProt Q9UBP9)
inactive: pictilisib 0.15 | crizotinib -0.224 | [5] 0.032 | duvelisib -0.03 | gandotinib 0.046 | tozasertib 0.042 | doramapimod 0.162 | bafetinib 0.054 | [6] 0.061 | nilotinib -0.033 | [7] -0.031 | dasatinib -0.124 | [8] 0.032 | [1] 0.004 | quisinostat -0.19 | tipifarnib -0.088 | [2] 0.135 | [4] 0.107

Further records:

GSTM2 (UniProt P28161)
inactive: lapatinib -0.024 | pictilisib -0.011 | [5] 0.121 | duvelisib -0.067 | gandotinib -0.042 | tozasertib 0.02 | bafetinib -0.011 | [6] -0.079 | nilotinib 0.124 | [7] -0.007 | dasatinib 0.027 | [8] 0.007 | [1] -0.005 | tipifarnib 0.064 | [3] -0.052 | [4] -0.019

HABP4 (UniProt Q5JVS0)
inactive: pictilisib 0.013 | bafetinib 0.059

GSDMD (UniProt P57764)
inactive: crizotinib 0.089 | doramapimod -0.116 | quisinostat 0.098 | [2] -0.074

GRAMD4 (UniProt Q6IC98)
inactive: lapatinib 0.098 | crizotinib -0.144 | duvelisib 0 | tozasertib -0.051 | doramapimod -0.028 | nilotinib 0.161 | [7] -0.246 | dasatinib -0.063 | [8] 0.28 | [1] -0.126 | quisinostat -0.12 | tipifarnib -0.017 | [2] 0.091 | [3] -0.044 | [4] -0.149

HCFC1 (UniProt P51610)
inactive: lapatinib 0.04 | pictilisib -0.017 | crizotinib -0.17 | [5] 0.034 | gandotinib 0.158 | doramapimod -0.047 | bafetinib 0.108 | [6] -0.238 | nilotinib 0.081 | [7] -0.256 | [8] -0.026 | quisinostat -0.012 | tipifarnib -0.067 | [2] 0.038 | [3] 0 | [4] 0.101

GRAMD1A (UniProt Q96CP6)
inactive: crizotinib 0.111 | doramapimod -0.286 | quisinostat 0.085 | [2] 0.02 | [4] -0.038
